# Assay results reported in PubChem BioAssay AID2685 (National Center for Advancing Translational Sciences (NCATS), 2010).
# Among all 320,000 compounds or so, about 2,100 (0.66%) were called active. The inconclusive results got no clear call from the source; some entries with a clear call stand among them for comparison. The call rests on the fitted dose curve; in most records, active means well fitted inhibition curve with a large enough effect in the signal ratio, with a control signal flat (not every such curve was filed as active); inconclusive means small, poorly fitted or top-dose-only effect, or effect the other way, or a change in a side signal; inactive means flat fitted curve, though single readings scatter; the % refers to the signal ratio. Where the call is inconclusive, the potency comes from a doubtful curve fit.
# Test: qHTS Assay for Lipid Storage Modulators in Drosophila S3 Cells
# Details: BODIPY lipid droplet fluorescence, 18-24 h, cells fed with added oleic acid; lipid storage change, negative = inhibition: at 46.1 µM (top of the series) unless noted
# How it was run: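 Drosophila S3 cells got compounds at several concentrations plus oleic acid (400 uM solution). Laser-scanning cytometry with 488 nm excitation read lipid droplets at 500-530 nm and cells at 575-640 nm. Percent activity was relative to 20 uM Triacsin C.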
# On the % scale 0 is the no-effect control and ±100 the full control effect; potency means the concentration at half of the fitted maximal effect.
SMILES,"lipid storage change, negative = inhibition",Potency
O=C(Nc1nc(-c2ccncc2)cs1)c1ccc(S(=O)(=O)N2CCOCC2)cc1,inconclusive: -7.78%,
Cc1ccc(C(=O)N2CCCC(C(=O)c3ccc(Cl)cc3C)C2)cn1 (stereo not drawn),,"inconclusive: 0.731 µM [falling, single point]"
Cc1nc2ccc(NS(=O)(=O)c3ccc(F)c(F)c3)cc2s1,inconclusive: -81.1%,
COc1nc(OCCNC(=O)Nc2ccccc2)nc(N(C)C)n1,inconclusive: -0.0958%,
Cc1cc(C)c(NC(=O)C2CCCN2CCC(C)C)c(C)c1 (stereo not drawn),inconclusive: -15.1%,
Cc1ccc(C2=N/C(=C\N3CCCCC3)C(=O)O2)cc1,inconclusive: 3.74%,
NC(=O)c1ccccc1OCc1nc2ccccc2s1,,"inconclusive: 0.116 µM [activator, single point]"
CN(CC(=O)Nc1sc2c(c1C#N)CCCCC2)Cc1nc2ccccc2c(=O)[nH]1,inconclusive: -4.32%,
CSCCC(NC(=O)c1cccc(C)c1)C(=O)OCN1C(=O)c2ccccc2C1=O (stereo not drawn),inconclusive: 30.1%,
CN(C(=O)CSc1nnc(-c2ccccc2F)o1)c1ccccc1,inconclusive,
Cc1ccc(OC(=O)c2cc(=O)c3ccccc3o2)cc1,inconclusive: -1.95%,
O=C(N/N=C/c1ccc(O)cc1O)NC12CC3CC(CC(C3)C1)C2,inconclusive: -147%,
O=C(Nc1cccnc1)c1cc(-c2cccnc2)nc2ccc(Br)cc12,inconclusive: 8.9%,
Cc1ccc2c(N)c(C)ccc2c1,inconclusive: 38.2%,
O=[N+]([O-])c1ccc(/C=N/NC2=NS(=O)(=O)c3ccccc32)cc1,inconclusive: -6.25%,
O=C(O)c1ccccc1C(=O)NCc1ccc(F)cc1,inconclusive: -57.3%,
O=C(Cc1csc(-c2ccccc2)n1)Nc1ccc(C(F)(F)F)cc1,,"inconclusive: 16.4 µM [falling, single point]"
CC1(C)C[C@@H]2C[C@@](C)(CN2C(=O)c2ccccc2)C1,,"inconclusive: 3.66 µM [falling, full curve, poor fit]"
CCn1c(C2CCN(S(=O)(=O)c3ccc(OC)cc3)CC2)n[nH]c1=S,inconclusive: 5.12%,
CCc1cc2c(=O)n(Cc3ccco3)c(SCc3c(C)noc3C)nc2s1,,"inconclusive: 0.58 µM [activator, partial curve, poor fit]"
CCCCc1ccc(NC(=O)CSc2nc3ncccc3[nH]2)cc1,,"inconclusive: 0.13 µM [activator, full curve, poor fit]"
CCCS(=O)(=O)N1CCCC(C(=O)NCCN(C)Cc2ccccc2)C1 (stereo not drawn),,"inconclusive: 0.82 µM [falling, full curve, poor fit]"
CCOC(=O)C1=NN(C(C)=O)C2(CC(=O)N(c3ccc(C)c(C)c3)C2=O)C1 (stereo not drawn),inconclusive: -11.8%,
COc1ccc(-n2ccnc2SCC(=O)NC2CCCC2)cc1,inconclusive: 34.8%,
COc1ccc(CNC(=O)C(=O)NCC2OCCN2S(=O)(=O)c2ccc(F)cc2)cc1 (stereo not drawn),,"inconclusive: 0.58 µM [falling, single point]"
CCOC(=O)N1CCN(C(=O)CSCC(=O)Nc2nc(-c3ccc(-c4ccccc4)cc3)cs2)CC1,,"inconclusive: 29.1 µM [falling, single point]"

SMILES,"lipid storage change, negative = inhibition",Potency
C[C@@H](CSc1ccccc1)CN1CC[C@H](O)CCC1=O,,"inconclusive: 6.51 µM [activator, single point]"
Cc1ccc(OCC(=O)N/N=C\c2ccc(O)c([N+](=O)[O-])c2)c([N+](=O)[O-])c1,inconclusive: 8.39%,
CCCCCCCCCCCCN1C(=O)CSC1c1cccnc1 (stereo not drawn),inconclusive: -19.8%,
CCn1cc(C(=O)NCCCN(CC(C)C)CC(C)C)c(=O)c2cc(S(=O)(=O)N3CCOCC3)ccc21,inactive,
CCCC/C(O)=C1\C(=O)CCCC1=NCCc1c(C)[nH]c2ccccc12,,"inconclusive: 1.64 µM [activator, full curve]"
O=C(C1=C[C@H](c2coc3ccccc3c2=O)C[C@H](OCCCCO)O1)N1CCN(Cc2ccccc2)CC1,inconclusive: -0.86%,
O=C(CSCc1ccc(F)cc1)N1CCN(c2ccc(F)cc2)CC1,,"inconclusive: 29.1 µM [falling, single point]"
CCCCOCC(O)Cn1c(C)nc2ccccc21 (stereo not drawn),inconclusive: 15.1%,
COCCNC(=S)N1CCc2cc(OC)c(OC)cc2C1COc1ccc(F)cc1 (stereo not drawn),,"inconclusive: 13 µM [falling, partial curve, poor fit]"
N=C(c1cccc([N+](=O)[O-])c1)N1CCCCC1,inconclusive: -3.69%,
CCC(CO)Nc1ncnc2c1cnn2-c1ccc(Cl)cc1 (stereo not drawn),inconclusive: -13.8%,
COc1cc(/C=C2/SC(=S)N(CCC(=O)Nc3ccccc3)C2=O)cc(OC)c1OC,,active: 1.84 µM
Cc1cccc(NC(=O)c2ccc(S(=O)(=O)N3CCCC3)cc2)c1C,inconclusive: 11.4%,
CCOc1ccccc1C(=O)N(Cc1ccc(C)o1)C1CCS(=O)(=O)C1 (stereo not drawn),,"inconclusive: 29.1 µM [falling, single point]"
COC(=O)NC1(C(F)(F)F)NC(=O)N(C2CCCCC2)C1=O (stereo not drawn),,"inconclusive: 8.2 µM [falling, partial curve, poor fit]"
COC(=O)c1ccc(C(=O)OC)c(NC(=O)C2CCCO2)c1 (stereo not drawn),,"inconclusive: 29.1 µM [activator, single point]"
Cc1cc(NC(=O)CSc2nnc(-c3cccnc3)n2N)no1,inconclusive: -141%,
COC(=O)c1ccc(CSc2nnc(N)s2)o1,inconclusive: 17.5%,
Cc1ccc(S(=O)(=O)NC(=O)C2CCCCC2)cc1,inconclusive: 22.8%,
O=C(Nc1nc2ccc([N+](=O)[O-])cc2s1)C1CCCO1 (stereo not drawn),inactive,
COc1ccc(CNC(=O)Cc2csc(NC(=O)Nc3ccccc3OC)n2)cc1,,"inconclusive: 1.03 µM [activator, full curve]"
CCOc1ccc(S(=O)(=O)Nc2cccc(C(=O)N3CCN(c4ccccc4O)CC3)c2)cc1,inconclusive: 13.3%,
O=C(c1ccc2c(c1)N(Cc1ccc(F)cc1)CCS2)N1CCOCC1,inconclusive: 12.1%,
CC(Sc1ncc(C#N)c(N)n1)C(=O)Nc1ccccc1 (stereo not drawn),inconclusive: 24.7%,
CC(=O)N1CCN(C(=O)CSc2nnc(C)n2-c2ccccc2)CC1,inconclusive: 34.1%,
CN(c1cccc(Cl)c1)S(=O)(=O)c1cccc(C(=O)Nc2nc3ccccc3[nH]2)c1,inconclusive: 19.7%,

# Quoted at random: four records from the list
SMILES,"lipid storage change, negative = inhibition",Potency
O=[N+]([O-])c1ccc(/C=N/NC2=NS(=O)(=O)c3ccccc32)cc1,inconclusive: -6.25%,
CCOc1ccccc1C(=O)N(Cc1ccc(C)o1)C1CCS(=O)(=O)C1 (stereo not drawn),,"inconclusive: 29.1 µM [falling, single point]"
CCCC/C(O)=C1\C(=O)CCCC1=NCCc1c(C)[nH]c2ccccc12,,"inconclusive: 1.64 µM [activator, full curve]"
COC(=O)NC1(C(F)(F)F)NC(=O)N(C2CCCCC2)C1=O (stereo not drawn),,"inconclusive: 8.2 µM [falling, partial curve, poor fit]"

# Further records follow.

SMILES,"lipid storage change, negative = inhibition",Potency
O=C(Nc1ccc(S(=O)(=O)N2CCCC2)cc1)c1ccc([N+](=O)[O-])cc1,inconclusive: -40.9%,
O=C(Nc1ccnn1C1CCN(Cc2c[nH]c3ccccc23)CC1)c1ccccc1,inconclusive: -135%,
CCOC(=O)C1(CCc2ccccc2)CCN(Cc2ccc(OC)cc2)CC1,inconclusive: -26.1%,
COC(=O)c1ccc(CSc2cc(C)c3ccccc3n2)o1,inconclusive: 25.9%,
C=CCCO[C@@H]1O[C@@H](C)[C@H](O)C[C@H]1O,inconclusive: 129%,
CCOC(=O)CNC(=O)c1ccccc1Br,inconclusive: -11.9%,
CC1=CN2C(=N)/C(=C/c3ccc(Sc4ccc(Cl)cc4)o3)C(=O)N=C2S1,,"inconclusive: 29.1 µM [falling, single point]"
O=C(CSc1nnc(CNc2ccc(Cl)cc2)o1)Nc1nc2c(s1)CCCC2,inconclusive: 10.1%,
N#Cc1ccccc1/C=N/Nc1nc(-c2ccccc2)c2cc(Br)ccc2n1,,"inconclusive: 29.1 µM [rising, single point]"
CCOC(=O)CSc1nc(Nc2ccc3c(c2)OCO3)c2ccccc2n1,,"inconclusive: 2.59 µM [activator, partial curve]"
COc1ccc(C(=O)Nc2ccccc2C(=O)N/N=C/c2ccccc2OC)cc1,,"inconclusive: 18.4 µM [activator, partial curve]"
CC(C)(C)NS(=O)(=O)c1ccc(NC(=S)NC(=O)C2CCC2)cc1,inconclusive: 30%,
CN1CCN(CC(=O)Nc2cccc([N+](=O)[O-])c2)CC1,,"inconclusive: 3.26 µM [falling, full curve, poor fit]"
O=C1c2ccccc2C(=O)N1OCc1ccc(Cl)cc1,inconclusive: 101%,
CC1CCN(CC(=O)NCc2ccco2)CC1,inconclusive: 3.21%,
COC(=O)c1ccccc1NC(=O)Cc1nc(-c2ccccc2)sc1-c1ccc(C)cc1,,"inconclusive: 18.4 µM [falling, single point]"
O=C(NCC1CCCO1)NC1CCCCC1 (stereo not drawn),inconclusive: -2.52%,
CC1=NN(c2ccccc2)C(=O)/C1=C\c1sccc1C,inconclusive: -2.93%,
CC(C)C(NC(=O)C(C)N1C(=O)c2ccccc2C1=O)c1ccccc1 (stereo not drawn),,"inconclusive: 1.84 µM [falling, partial curve]"
CCC(CCC(=O)Nc1cccc([N+](=O)[O-])c1)C(=O)O (stereo not drawn),inconclusive: 31.5%,
CC1=C(C)CC(C(=O)Nc2nc(C)cs2)C(C(=O)O)C1 (stereo not drawn),,"inconclusive: 29.1 µM [activator, single point]"
O=C(Nc1ccc2c(c1)OCCO2)c1cccc(Br)c1,inconclusive: -29%,
COc1ccc2[nH]cc(CCNS(=O)(=O)c3ccc(F)cc3)c2c1,inactive,
CCc1ccccc1NC(=O)CNC(=O)c1n[nH]c(=O)c2ccccc12,inconclusive: -85.6%,
Cc1ccc(/C=N/NC(=O)CN2CCN(Cc3ccccc3Cl)CC2)o1,inconclusive: 9.82%,
O=C(Cc1ccccn1)c1ccccc1,,"inconclusive: 6.51 µM [activator, partial curve, poor fit]"
